“Also recorded” adds a separate entry of the source. At least one compound was matched to its structure with a doubt left.
System: male mice of OF1 strain
Assay: Behavioral sensitization to cocaine / cocaethylene in slow-release formulation (locomotor activity over one hour)
Type: in vivo

COC(=O)[C@H]1[C@@H](OC(=O)c2ccccc2)C[C@@H]2CC[C@H]1N2C [cocaine]
expression of sensitization after a weaning period followed by a new injection (cocaine 20 mg/kg i.p. 6 days, weaned for 6 days, challenge injection 20 mg/kg i.p. on D13): still express this sensitization; also recorded: express a behavioral sensitization | behavioral sensitization on repeated administration (in physiological saline, 20 mg/kg i.p. for 6 days, locomotor activity D1, D3, D6): results in a behavioral sensitization that appears very rapidly

— patent US20110039834A1, “NOVEL PHARMACEUTICAL COMPOSITIONS FOR OPTIMIZING SUBSTITUTION TREATMENTS AND EXTENDING THE PHARMACOPOEIA TO GLOBAL TREATMENT OF ADDICTIONS” (TRIMARAN LIMITED, priority 2006, published 2011)
